PubChem BioAssay AID1259308, NCATS | 2017
Shown is a random part of about 59,000 reagents. About 1,510 of them (2.6%) were called active. 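Calls use total luciferase alone and ignore viability, so some active siRNAs may act by altering cell number.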 Reagents against one gene are numbered here. Not all columns of the deposit are shown.

Screen: 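Genes whose loss raises luciferase production in HEK293 cells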 (primary screen)
Cells: human HEK293 embryonic kidney cells stably expressing firefly luciferase (HEK-CMV-Luc2-Hygro)
Reagents: single siRNA against human genes, 0.8 pmol siRNA per well
Duration: 72 h
Measured: 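Luciferase light (ONE-Glo) measured on one replicate plate set and viability (CellTiter-Glo) on the other, scaled to a negative control siRNA, with robust z-scores and luciferase per cell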
Direction: total luciferase, z-score and total luciferase, % of control: higher = more reporter protein produced
Rule for the call: 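Active when the median/MAD z-score for overall luciferase is greater than 3; a gene was taken forward for validation with new siRNAs if at least two of its three siRNAs passed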
Meaning of the calls: active = raised luciferase; inactive = no rise

{"gene": "TBC1D26 (GeneID 353149)", "reagent": 1, "total luciferase, z-score": 1.05, "total luciferase, % of control": 103, "outcome": "inactive"}
{"gene": "TBC1D26 (GeneID 353149)", "reagent": 2, "total luciferase, z-score": 4.58, "total luciferase, % of control": 173, "outcome": "active"}
{"gene": "TBC1D26 (GeneID 353149)", "reagent": 3, "total luciferase, z-score": 0.971, "total luciferase, % of control": 101, "outcome": "inactive"}
{"gene": "SDC3 (GeneID 9672)", "reagent": 1, "total luciferase, z-score": 0.0177, "total luciferase, % of control": 82.2, "outcome": "inactive"}
{"gene": "SDC3 (GeneID 9672)", "reagent": 2, "total luciferase, z-score": -0.0416, "total luciferase, % of control": 81.1, "outcome": "inactive"}
{"gene": "SDC3 (GeneID 9672)", "reagent": 3, "total luciferase, z-score": -2.06, "total luciferase, % of control": 41, "outcome": "inactive"}
{"gene": "SMIM7 (GeneID 79086)", "reagent": 1, "total luciferase, z-score": -0.745, "total luciferase, % of control": 67.1, "outcome": "inactive"}
{"gene": "SMIM7 (GeneID 79086)", "reagent": 2, "total luciferase, z-score": 0.0943, "total luciferase, % of control": 83.8, "outcome": "inactive"}
{"gene": "SMIM7 (GeneID 79086)", "reagent": 3, "total luciferase, z-score": 2.52, "total luciferase, % of control": 132, "outcome": "inactive"}
{"gene": "ARHGAP29 (GeneID 9411)", "reagent": 1, "total luciferase, z-score": -0.268, "total luciferase, % of control": 76.6, "outcome": "inactive"}
{"gene": "ARHGAP29 (GeneID 9411)", "reagent": 2, "total luciferase, z-score": -0.392, "total luciferase, % of control": 74.1, "outcome": "inactive"}
{"gene": "ARHGAP29 (GeneID 9411)", "reagent": 3, "total luciferase, z-score": -0.769, "total luciferase, % of control": 66.6, "outcome": "inactive"}

Reagents above marked active (1):
{"gene": "TBC1D26 (GeneID 353149)", "reagent": 2, "total luciferase, z-score": 4.58, "total luciferase, % of control": 173, "outcome": "active"}

Continued.
{"gene": "ANKRD20A18P (GeneID 391269)", "reagent": 1, "total luciferase, z-score": 1.01, "total luciferase, % of control": 102, "outcome": "inactive"}
{"gene": "ANKRD20A18P (GeneID 391269)", "reagent": 2, "total luciferase, z-score": 1.15, "total luciferase, % of control": 105, "outcome": "inactive"}
{"gene": "ANKRD20A18P (GeneID 391269)", "reagent": 3, "total luciferase, z-score": 1.2, "total luciferase, % of control": 106, "outcome": "inactive"}
{"gene": "BPIFB3 (GeneID 359710)", "reagent": 1, "total luciferase, z-score": -0.361, "total luciferase, % of control": 74.7, "outcome": "inactive"}
{"gene": "BPIFB3 (GeneID 359710)", "reagent": 2, "total luciferase, z-score": 1.26, "total luciferase, % of control": 107, "outcome": "inactive"}
{"gene": "BPIFB3 (GeneID 359710)", "reagent": 3, "total luciferase, z-score": 0.713, "total luciferase, % of control": 96.1, "outcome": "inactive"}
{"gene": "RAB27A (GeneID 5873)", "reagent": 1, "total luciferase, z-score": -0.517, "total luciferase, % of control": 71.6, "outcome": "inactive"}
{"gene": "RAB27A (GeneID 5873)", "reagent": 2, "total luciferase, z-score": 0.121, "total luciferase, % of control": 84.3, "outcome": "inactive"}
{"gene": "RAB27A (GeneID 5873)", "reagent": 3, "total luciferase, z-score": -0.529, "total luciferase, % of control": 71.4, "outcome": "inactive"}
{"gene": "FGL1 (GeneID 2267)", "reagent": 1, "total luciferase, z-score": 0.143, "total luciferase, % of control": 84.7, "outcome": "inactive"}
{"gene": "FGL1 (GeneID 2267)", "reagent": 2, "total luciferase, z-score": 0.178, "total luciferase, % of control": 85.4, "outcome": "inactive"}
{"gene": "FGL1 (GeneID 2267)", "reagent": 3, "total luciferase, z-score": -0.883, "total luciferase, % of control": 64.3, "outcome": "inactive"}
{"gene": "LOXL3 (GeneID 84695)", "reagent": 1, "total luciferase, z-score": -0.224, "total luciferase, % of control": 77.4, "outcome": "inactive"}
{"gene": "LOXL3 (GeneID 84695)", "reagent": 2, "total luciferase, z-score": -0.49, "total luciferase, % of control": 72.1, "outcome": "inactive"}
{"gene": "LOXL3 (GeneID 84695)", "reagent": 3, "total luciferase, z-score": 0.705, "total luciferase, % of control": 95.9, "outcome": "inactive"}
{"gene": "HAPLN2 (GeneID 60484)", "reagent": 1, "total luciferase, z-score": -0.544, "total luciferase, % of control": 71.1, "outcome": "inactive"}
{"gene": "HAPLN2 (GeneID 60484)", "reagent": 2, "total luciferase, z-score": -0.00276, "total luciferase, % of control": 81.8, "outcome": "inactive"}
{"gene": "HAPLN2 (GeneID 60484)", "reagent": 3, "total luciferase, z-score": -0.076, "total luciferase, % of control": 80.4, "outcome": "inactive"}
{"gene": "RNF2 (GeneID 6045)", "reagent": 1, "total luciferase, z-score": -0.109, "total luciferase, % of control": 79.7, "outcome": "inactive"}
{"gene": "RNF2 (GeneID 6045)", "reagent": 2, "total luciferase, z-score": -1.44, "total luciferase, % of control": 53.3, "outcome": "inactive"}
{"gene": "RNF2 (GeneID 6045)", "reagent": 3, "total luciferase, z-score": 0.476, "total luciferase, % of control": 91.3, "outcome": "inactive"}
